Data: US20220142941A1, “COMBINATION THERAPEUTIC REGIMENS WITH 1,6-DIBROMO-1,6-DIDEOXY-DULCITOL” (Eleison Pharmaceuticals LLC, priority 2019, published 2022)
At least one structure is not confirmed: it was looked up by name or label, or the drawing left a doubt.

System: panel of 20 patient derived cell cultures
Test: DBD combination treatment, overall result over the panel
Assay type: cell-based, human
Conditions: Tables 2 and 3, day 5 and day 8, all cultures
Description: Crystalline DBD polymorph treatment was combined with chemotherapy, radiotherapy and targeted inhibitors to determine whether the crystalline DBD polymorph form could: enhance efficacy of the conventional therapies; enhance efficacy when combined with newer ‘targeted’ therapies; or would make (a subset of) cultures more sensitive to this treatment.
Therefore, cultures were treated with: • a.

For `Cc1[nH]c2ccccc2c1CCNCc1ccc(/C=C/C(=O)NO)cc1` [Panobinostat], the “enhancement factors overall, in combination with DBD” value was “high enhancement factor, most cases”.
